# Target: Stromelysin-1 (Homo sapiens, UniProt P08254)
# The chains behind the UniProt entries cited, without tags or fusion partners. Where a name states a change or a piece, a line headed by the entry shows the natural chain unless it says otherwise.
# UniProt P08254: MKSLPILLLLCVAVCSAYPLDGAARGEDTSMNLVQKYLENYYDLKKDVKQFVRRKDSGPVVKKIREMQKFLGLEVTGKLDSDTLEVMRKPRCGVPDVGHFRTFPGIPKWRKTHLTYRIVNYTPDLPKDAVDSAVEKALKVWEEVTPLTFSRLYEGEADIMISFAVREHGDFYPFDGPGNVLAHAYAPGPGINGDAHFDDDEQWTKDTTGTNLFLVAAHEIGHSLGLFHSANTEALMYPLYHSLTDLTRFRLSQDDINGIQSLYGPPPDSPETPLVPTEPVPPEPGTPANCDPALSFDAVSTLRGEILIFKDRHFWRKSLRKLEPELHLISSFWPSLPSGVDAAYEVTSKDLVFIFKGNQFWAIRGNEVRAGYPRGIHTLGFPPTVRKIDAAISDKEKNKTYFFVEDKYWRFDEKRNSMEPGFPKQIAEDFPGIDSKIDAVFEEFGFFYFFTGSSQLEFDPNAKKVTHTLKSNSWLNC
row,Structure (SMILES),Ki [µM]
1,Cc1cc(C)cc(CC[C@H](N[C@H](C)C(=O)O)C(=O)N[C@@H](CC(C)C)C(=O)Nc2ccccc2)c1,> 10
2,Cc1ccccc1CC[C@H](N[C@H](C)C(=O)O)C(=O)N[C@@H](CC(C)C)C(=O)Nc1ccccc1,> 10
3,COc1ccccc1CC[C@H](N[C@H](C)C(=O)O)C(=O)N[C@@H](CC(C)C)C(=O)Nc1ccccc1,> 10
4,COc1ccc(CC[C@H](N[C@H](C)C(=O)O)C(=O)N[C@@H](CC(C)C)C(=O)Nc2ccccc2)cc1OC,> 10
